This is an account of results in the supplement of paper PMC6411743.

Protein sequences, listed by entry. Tags and fused reporters are not part of them. Lines headed by an entry give the natural chain unless they say otherwise; changes in a name come on top.
UniProt Q5TDH0: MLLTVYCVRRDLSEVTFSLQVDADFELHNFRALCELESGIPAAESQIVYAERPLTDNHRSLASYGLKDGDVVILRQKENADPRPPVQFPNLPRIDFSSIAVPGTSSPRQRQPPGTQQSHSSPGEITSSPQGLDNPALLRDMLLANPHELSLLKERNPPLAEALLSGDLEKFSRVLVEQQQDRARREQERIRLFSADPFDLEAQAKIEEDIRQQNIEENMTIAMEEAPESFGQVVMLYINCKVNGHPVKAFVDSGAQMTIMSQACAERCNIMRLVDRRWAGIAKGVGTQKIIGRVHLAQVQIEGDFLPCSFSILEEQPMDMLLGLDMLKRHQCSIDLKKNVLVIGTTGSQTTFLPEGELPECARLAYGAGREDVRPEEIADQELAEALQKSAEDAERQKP
UniProt Q7LDG7: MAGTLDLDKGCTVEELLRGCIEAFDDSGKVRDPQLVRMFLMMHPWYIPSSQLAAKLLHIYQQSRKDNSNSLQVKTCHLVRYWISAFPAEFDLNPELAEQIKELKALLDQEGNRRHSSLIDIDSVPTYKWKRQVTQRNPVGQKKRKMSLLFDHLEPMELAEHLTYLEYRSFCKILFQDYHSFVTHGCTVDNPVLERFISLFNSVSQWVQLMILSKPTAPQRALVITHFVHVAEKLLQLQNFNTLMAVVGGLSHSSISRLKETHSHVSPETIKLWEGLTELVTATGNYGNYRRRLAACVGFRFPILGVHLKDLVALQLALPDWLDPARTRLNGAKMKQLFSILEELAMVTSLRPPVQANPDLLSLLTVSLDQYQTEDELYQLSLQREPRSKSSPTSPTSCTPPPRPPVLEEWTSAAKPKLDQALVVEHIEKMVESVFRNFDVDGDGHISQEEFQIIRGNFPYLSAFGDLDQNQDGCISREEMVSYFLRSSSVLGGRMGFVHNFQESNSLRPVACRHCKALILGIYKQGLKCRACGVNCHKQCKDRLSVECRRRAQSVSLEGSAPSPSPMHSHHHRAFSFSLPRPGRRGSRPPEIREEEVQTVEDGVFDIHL
UniProt Q5VUA4: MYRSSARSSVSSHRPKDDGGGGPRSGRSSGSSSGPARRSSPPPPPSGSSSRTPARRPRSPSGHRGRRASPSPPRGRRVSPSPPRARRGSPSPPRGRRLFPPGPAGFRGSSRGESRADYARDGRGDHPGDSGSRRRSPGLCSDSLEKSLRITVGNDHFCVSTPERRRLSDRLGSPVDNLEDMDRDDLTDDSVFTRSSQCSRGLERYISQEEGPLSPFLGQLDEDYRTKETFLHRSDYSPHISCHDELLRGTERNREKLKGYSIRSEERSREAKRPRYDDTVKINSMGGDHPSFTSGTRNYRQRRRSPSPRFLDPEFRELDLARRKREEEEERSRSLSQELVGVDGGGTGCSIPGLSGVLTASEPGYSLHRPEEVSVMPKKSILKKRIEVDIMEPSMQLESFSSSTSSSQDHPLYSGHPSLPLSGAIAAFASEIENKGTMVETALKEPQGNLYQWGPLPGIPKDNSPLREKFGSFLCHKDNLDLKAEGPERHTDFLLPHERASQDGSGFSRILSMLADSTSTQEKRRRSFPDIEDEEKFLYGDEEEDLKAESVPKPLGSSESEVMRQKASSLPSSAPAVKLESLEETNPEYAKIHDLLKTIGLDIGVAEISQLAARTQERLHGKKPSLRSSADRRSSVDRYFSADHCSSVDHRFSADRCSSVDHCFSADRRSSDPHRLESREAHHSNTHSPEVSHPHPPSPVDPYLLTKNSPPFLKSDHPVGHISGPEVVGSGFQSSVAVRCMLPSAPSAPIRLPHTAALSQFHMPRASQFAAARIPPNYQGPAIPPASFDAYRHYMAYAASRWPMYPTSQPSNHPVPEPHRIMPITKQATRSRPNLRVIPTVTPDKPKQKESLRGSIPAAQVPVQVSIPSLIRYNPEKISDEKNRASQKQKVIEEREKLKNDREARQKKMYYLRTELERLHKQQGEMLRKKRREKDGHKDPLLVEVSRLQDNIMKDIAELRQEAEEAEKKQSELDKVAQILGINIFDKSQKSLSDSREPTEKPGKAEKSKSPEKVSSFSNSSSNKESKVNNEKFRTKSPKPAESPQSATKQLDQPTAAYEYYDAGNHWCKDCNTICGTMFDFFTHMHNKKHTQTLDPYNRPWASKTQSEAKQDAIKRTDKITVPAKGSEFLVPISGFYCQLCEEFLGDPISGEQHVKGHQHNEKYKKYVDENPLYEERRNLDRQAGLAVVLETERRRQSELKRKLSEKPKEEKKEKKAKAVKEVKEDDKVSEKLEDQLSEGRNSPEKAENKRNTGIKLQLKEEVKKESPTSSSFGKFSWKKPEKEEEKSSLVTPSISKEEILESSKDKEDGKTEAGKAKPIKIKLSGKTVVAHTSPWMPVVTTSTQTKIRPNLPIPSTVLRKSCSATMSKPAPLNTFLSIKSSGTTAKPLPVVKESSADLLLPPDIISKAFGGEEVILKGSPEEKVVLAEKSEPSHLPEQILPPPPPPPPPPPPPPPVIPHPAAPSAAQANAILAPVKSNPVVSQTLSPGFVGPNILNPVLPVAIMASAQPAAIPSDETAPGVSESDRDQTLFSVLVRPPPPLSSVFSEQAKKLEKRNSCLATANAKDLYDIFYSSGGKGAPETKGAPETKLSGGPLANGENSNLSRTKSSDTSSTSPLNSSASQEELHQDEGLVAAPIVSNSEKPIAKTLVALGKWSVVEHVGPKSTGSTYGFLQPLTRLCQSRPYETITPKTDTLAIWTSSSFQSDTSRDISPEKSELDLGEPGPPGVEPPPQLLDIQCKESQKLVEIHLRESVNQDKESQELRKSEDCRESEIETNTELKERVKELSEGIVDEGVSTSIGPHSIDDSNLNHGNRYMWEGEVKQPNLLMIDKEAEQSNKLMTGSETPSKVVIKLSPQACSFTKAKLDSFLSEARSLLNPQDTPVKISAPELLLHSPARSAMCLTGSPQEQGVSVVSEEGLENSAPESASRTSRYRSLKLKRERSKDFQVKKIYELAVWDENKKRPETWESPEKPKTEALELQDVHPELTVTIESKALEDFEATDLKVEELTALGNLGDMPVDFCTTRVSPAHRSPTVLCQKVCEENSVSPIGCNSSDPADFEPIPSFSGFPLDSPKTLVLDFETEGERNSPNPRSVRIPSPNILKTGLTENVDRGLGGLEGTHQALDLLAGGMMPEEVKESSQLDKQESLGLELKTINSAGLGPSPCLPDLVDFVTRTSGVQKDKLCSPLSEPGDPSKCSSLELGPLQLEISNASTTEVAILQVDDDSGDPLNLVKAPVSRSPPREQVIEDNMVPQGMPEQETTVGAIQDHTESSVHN
UniProt Q86U42: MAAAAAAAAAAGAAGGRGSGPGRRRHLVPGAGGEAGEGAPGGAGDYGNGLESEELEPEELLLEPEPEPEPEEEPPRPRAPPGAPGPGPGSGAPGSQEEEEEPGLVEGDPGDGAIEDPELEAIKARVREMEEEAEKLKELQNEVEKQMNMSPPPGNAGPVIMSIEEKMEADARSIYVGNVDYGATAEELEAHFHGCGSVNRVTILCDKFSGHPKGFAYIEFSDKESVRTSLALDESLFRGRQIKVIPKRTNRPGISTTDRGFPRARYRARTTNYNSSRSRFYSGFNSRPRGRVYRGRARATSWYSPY
UniProt Q7LBR1: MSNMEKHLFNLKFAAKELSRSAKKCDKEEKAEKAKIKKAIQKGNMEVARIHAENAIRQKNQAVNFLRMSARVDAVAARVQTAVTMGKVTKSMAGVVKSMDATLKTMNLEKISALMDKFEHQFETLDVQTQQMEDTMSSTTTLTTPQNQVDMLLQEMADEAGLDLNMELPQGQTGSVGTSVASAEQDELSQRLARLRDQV
UniProt Q7Z6E9: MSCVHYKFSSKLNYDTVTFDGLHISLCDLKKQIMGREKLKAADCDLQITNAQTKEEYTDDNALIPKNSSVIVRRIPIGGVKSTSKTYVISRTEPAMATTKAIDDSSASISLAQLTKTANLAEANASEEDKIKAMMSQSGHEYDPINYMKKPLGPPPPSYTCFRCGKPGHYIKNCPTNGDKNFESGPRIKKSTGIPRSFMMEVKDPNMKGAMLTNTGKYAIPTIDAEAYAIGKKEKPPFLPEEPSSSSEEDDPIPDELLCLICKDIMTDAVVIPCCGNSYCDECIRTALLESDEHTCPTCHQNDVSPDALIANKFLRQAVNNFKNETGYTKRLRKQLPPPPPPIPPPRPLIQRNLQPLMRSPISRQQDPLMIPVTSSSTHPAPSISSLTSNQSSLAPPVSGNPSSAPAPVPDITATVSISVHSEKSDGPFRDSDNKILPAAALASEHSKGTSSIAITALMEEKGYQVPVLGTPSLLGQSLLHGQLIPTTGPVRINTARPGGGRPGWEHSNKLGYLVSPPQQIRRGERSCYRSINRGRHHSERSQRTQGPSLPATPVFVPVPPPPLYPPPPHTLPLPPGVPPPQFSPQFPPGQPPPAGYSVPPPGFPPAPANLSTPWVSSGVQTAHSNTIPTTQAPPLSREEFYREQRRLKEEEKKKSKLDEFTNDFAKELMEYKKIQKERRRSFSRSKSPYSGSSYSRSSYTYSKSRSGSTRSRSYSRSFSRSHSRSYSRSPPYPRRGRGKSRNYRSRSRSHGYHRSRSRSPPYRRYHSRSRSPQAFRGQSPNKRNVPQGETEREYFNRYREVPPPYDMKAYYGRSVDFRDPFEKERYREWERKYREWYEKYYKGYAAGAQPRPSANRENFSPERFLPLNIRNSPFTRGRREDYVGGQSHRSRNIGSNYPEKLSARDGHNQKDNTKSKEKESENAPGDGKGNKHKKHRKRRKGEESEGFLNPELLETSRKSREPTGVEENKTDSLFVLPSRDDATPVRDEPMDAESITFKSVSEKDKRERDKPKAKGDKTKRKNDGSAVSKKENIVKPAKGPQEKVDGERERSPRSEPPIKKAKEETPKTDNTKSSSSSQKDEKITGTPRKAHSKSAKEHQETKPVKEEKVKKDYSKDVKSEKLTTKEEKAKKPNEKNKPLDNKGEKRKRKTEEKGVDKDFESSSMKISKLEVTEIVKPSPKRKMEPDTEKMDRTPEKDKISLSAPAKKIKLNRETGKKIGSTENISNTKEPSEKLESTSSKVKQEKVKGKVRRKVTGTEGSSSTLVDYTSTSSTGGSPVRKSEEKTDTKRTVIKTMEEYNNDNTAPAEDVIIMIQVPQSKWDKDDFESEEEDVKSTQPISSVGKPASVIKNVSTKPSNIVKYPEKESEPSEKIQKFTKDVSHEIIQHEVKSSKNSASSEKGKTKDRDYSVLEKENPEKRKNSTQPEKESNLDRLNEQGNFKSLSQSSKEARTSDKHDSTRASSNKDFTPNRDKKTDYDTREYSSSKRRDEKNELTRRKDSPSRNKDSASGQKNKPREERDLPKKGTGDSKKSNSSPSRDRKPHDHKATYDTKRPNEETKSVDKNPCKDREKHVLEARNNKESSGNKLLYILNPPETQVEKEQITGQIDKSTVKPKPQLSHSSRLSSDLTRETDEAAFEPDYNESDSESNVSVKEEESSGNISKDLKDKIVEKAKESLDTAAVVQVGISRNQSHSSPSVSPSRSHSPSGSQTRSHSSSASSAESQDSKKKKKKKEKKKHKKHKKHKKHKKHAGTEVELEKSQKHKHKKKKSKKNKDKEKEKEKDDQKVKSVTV
UniProt Q659A1: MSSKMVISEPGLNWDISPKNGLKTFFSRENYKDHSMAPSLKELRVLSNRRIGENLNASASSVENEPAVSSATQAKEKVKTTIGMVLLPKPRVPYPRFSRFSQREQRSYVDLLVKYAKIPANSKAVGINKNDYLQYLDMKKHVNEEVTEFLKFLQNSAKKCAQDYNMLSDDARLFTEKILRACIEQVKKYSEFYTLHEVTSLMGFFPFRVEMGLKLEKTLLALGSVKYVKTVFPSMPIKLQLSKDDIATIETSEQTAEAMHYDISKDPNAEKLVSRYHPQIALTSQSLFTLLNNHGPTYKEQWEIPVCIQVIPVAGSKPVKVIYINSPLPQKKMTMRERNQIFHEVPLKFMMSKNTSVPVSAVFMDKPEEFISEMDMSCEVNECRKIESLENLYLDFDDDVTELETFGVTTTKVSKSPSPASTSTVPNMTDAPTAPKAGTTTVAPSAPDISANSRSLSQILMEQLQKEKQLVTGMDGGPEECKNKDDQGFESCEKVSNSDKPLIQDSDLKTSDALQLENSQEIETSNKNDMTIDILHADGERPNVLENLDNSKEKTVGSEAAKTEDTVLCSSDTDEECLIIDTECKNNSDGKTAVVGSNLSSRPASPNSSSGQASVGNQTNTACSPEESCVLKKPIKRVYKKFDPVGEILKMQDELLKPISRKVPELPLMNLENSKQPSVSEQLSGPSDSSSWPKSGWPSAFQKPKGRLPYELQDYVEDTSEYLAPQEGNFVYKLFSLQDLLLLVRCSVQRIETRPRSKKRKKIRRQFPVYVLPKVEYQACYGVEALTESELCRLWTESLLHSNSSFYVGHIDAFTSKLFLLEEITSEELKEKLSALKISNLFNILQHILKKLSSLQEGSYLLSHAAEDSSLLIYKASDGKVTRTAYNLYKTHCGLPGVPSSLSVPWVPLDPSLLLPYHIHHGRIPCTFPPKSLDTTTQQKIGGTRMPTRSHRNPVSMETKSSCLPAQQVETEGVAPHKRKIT

Compound in this assay: Nc1nc2c(ncn2[C@@H]2O[C@H](COP(=O)(O)OP(=O)(O)OP(=O)(O)O)[C@@H](O)[C@H]2O)c(=O)[nH]1 [guanosine triphosphate]
Put plainly: NP40-soluble protein abundance relative to vehicle (solubility fold change) (ratio); higher = more soluble protein in presence of GTP. The gist of the method:
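Across three independent experiments, values are fold changes against the detergent-processed vehicle for each replicate, based on vsn-normalised intensities. The samples were Jurkat crude lysate treated with eight concentrations (0.1 to 10 mM) for 10 min at room temperature and then 3 min at 37 °C. Lysate was solubilised with 0.8% NP40 and benzonase, ultracentrifuged, and the supernatant analysed by TMT-labelled LC-MS/MS.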

± gives the standard deviation of the averaged measurements. The list shows a part of the results.

With UniProt Q86WA8 and related entries, the NP40-soluble protein abundance came out at 1.09 ± 0.072 (concentration: 0.1mM); 1.09 ± 0.084 (concentration: 0.5mM); 1.04 ± 0.079 (concentration: 1mM); 1.01 ± 0.12 (concentration: 2mM); 1.02 ± 0.17 (concentration: 4mM); 0.932 ± 0.12 (concentration: 6mM). In addition, the NP40-soluble protein abundance by setting is: (concentration: 8mM) 0.967 ± 0.1; (concentration: 10mM) 0.966 ± 0.063.

As for UniProt Q5VYS8 and related entries, the NP40-soluble protein abundance (concentration: 0.1mM) was 1.04 ± 0.02; the NP40-soluble protein abundance (concentration: 0.5mM) worked out at 1.08 ± 0.058; the NP40-soluble protein abundance (concentration: 1mM) came to 1.08 ± 0.046; the NP40-soluble protein abundance (concentration: 2mM) turned out to be 1.11 ± 0.017; the NP40-soluble protein abundance (concentration: 4mM) came out at 1.09 ± 0.044; the NP40-soluble protein abundance (concentration: 6mM) came out at 1.1 ± 0.021. The NP40-soluble protein abundance was 1.16 ± 0.066 (concentration: 8mM) and 1.12 ± 0.074 (concentration: 10mM).

For the target UniProt Q5TDH0 and related entries, the NP40-soluble protein abundance by setting is: (concentration: 0.1mM) 0.965 ± 0.065; (concentration: 0.5mM) 0.945 ± 0.067; (concentration: 1mM) 0.932 ± 0.051; (concentration: 2mM) 0.905 ± 0.051; (concentration: 4mM) 0.921 ± 0.069; (concentration: 6mM) 0.877 ± 0.057. In addition, the NP40-soluble protein abundance is, setting by setting: (concentration: 8mM) 0.899 ± 0.062; (concentration: 10mM) 0.883 ± 0.091.

On to UniProt Q6Y1H2, for which the NP40-soluble protein abundance was 0.918 ± 0.052 (concentration: 0.1mM); 0.879 ± 0.026 (concentration: 0.5mM); 0.908 ± 0.012 (concentration: 1mM); 0.871 ± 0.066 (concentration: 2mM); 0.894 ± 0.026 (concentration: 4mM); 0.854 ± 0.038 (concentration: 6mM). Also, the NP40-soluble protein abundance (concentration: 8mM) came out at 0.906 ± 0.05 and the NP40-soluble protein abundance (concentration: 10mM) was 0.873 ± 0.051.

On to UniProt Q5VWN6, for which the NP40-soluble protein abundance came out at 1.05 ± 0.038 (concentration: 0.1mM); 0.989 ± 0.045 (concentration: 0.5mM); 0.979 ± 0.016 (concentration: 1mM); 1.05 ± 0.08 (concentration: 2mM); 1.09 ± 0.045 (concentration: 4mM); 1.17 ± 0.086 (concentration: 6mM). In addition, the NP40-soluble protein abundance (concentration: 8mM) came out at 1.17 ± 0.11 and the NP40-soluble protein abundance (concentration: 10mM) came to 1.21 ± 0.09.

On to ZFYVE16 (UniProt Q7Z3T8), for which the NP40-soluble protein abundance (concentration: 0.1mM) came to 0.967 ± 0.072; the NP40-soluble protein abundance (concentration: 0.5mM) came out at 0.934 ± 0.035; the NP40-soluble protein abundance (concentration: 1mM) turned out to be 0.955 ± 0.068; the NP40-soluble protein abundance (concentration: 2mM) was 0.931 ± 0.081; the NP40-soluble protein abundance (concentration: 4mM) amounted to 0.907 ± 0.059; the NP40-soluble protein abundance (concentration: 6mM) was 0.906 ± 0.052. For the same target, the NP40-soluble protein abundance by setting is: (concentration: 8mM) 0.928 ± 0.048; (concentration: 10mM) 0.92 ± 0.04.

For UniProt Q7LDG7 and related entries, the NP40-soluble protein abundance reads like this: (concentration: 0.1mM) 0.987 ± 0.044; (concentration: 0.5mM) 1.03 ± 0.057; (concentration: 1mM) 0.961 ± 0.037; (concentration: 2mM) 1.02 ± 0.087; (concentration: 4mM) 0.9882 ± 0.0074; (concentration: 6mM) 0.994 ± 0.11. The NP40-soluble protein abundance reads like this: (concentration: 8mM) 0.945 ± 0.1; (concentration: 10mM) 0.994 ± 0.026.

For ZNF318 (UniProt Q5VUA4), the NP40-soluble protein abundance was found to be 1.08 ± 0.083 (concentration: 0.1mM); 1.07 ± 0.071 (concentration: 0.5mM); 1.19 ± 0.13 (concentration: 1mM); 1.2 ± 0.057 (concentration: 2mM); 1.24 ± 0.17 (concentration: 4mM); 1.25 ± 0.12 (concentration: 6mM). The NP40-soluble protein abundance amounted to 1.33 ± 0.18 (concentration: 8mM) and 1.22 ± 0.21 (concentration: 10mM).

As for UniProt Q86U42 and related entries, the NP40-soluble protein abundance (concentration: 0.1mM) stood at 0.939 ± 0.032; the NP40-soluble protein abundance (concentration: 0.5mM) was found to be 0.921 ± 0.0098; the NP40-soluble protein abundance (concentration: 1mM) came out at 0.972 ± 0.049; the NP40-soluble protein abundance (concentration: 2mM) was 0.972 ± 0.023; the NP40-soluble protein abundance (concentration: 4mM) amounted to 1.01 ± 0.05; the NP40-soluble protein abundance (concentration: 6mM) came to 1.02 ± 0.071. For the same target, the NP40-soluble protein abundance runs as follows: (concentration: 8mM) 1.03 ± 0.067; (concentration: 10mM) 1.04 ± 0.052.

For the target CHMP1B (UniProt Q7LBR1), the NP40-soluble protein abundance was 0.84 ± 0.038 (concentration: 0.1mM); 0.797 ± 0.064 (concentration: 0.5mM); 0.957 ± 0.03 (concentration: 1mM); 0.938 ± 0.059 (concentration: 2mM); 0.911 ± 0.046 (concentration: 4mM); 0.922 ± 0.075 (concentration: 6mM). The NP40-soluble protein abundance runs as follows: (concentration: 8mM) 0.858 ± 0.1; (concentration: 10mM) 0.94 ± 0.036.

Regarding UniProt Q709C8 and related entries, the NP40-soluble protein abundance is, setting by setting: (concentration: 0.1mM) 1.04 ± 0.042; (concentration: 0.5mM) 1.05 ± 0.079; (concentration: 1mM) 1 ± 0.034; (concentration: 2mM) 1.03 ± 0.062; (concentration: 4mM) 1.02 ± 0.084; (concentration: 6mM) 0.999 ± 0.069. Besides, the NP40-soluble protein abundance turned out to be 0.998 ± 0.053 (concentration: 8mM) and 0.961 ± 0.06 (concentration: 10mM).

As for UniProt Q71RC2 and related entries, the NP40-soluble protein abundance is 1.04 ± 0.056 (concentration: 0.1mM); 1.04 ± 0.038 (concentration: 0.5mM); 1.13 ± 0.021 (concentration: 1mM); 1.19 ± 0.059 (concentration: 2mM); 1.23 ± 0.04 (concentration: 4mM); 1.29 ± 0.015 (concentration: 6mM). Besides, the NP40-soluble protein abundance runs as follows: (concentration: 8mM) 1.37 ± 0.07; (concentration: 10mM) 1.46 ± 0.12.

Turning to RBBP6 (UniProt Q7Z6E9), the NP40-soluble protein abundance runs as follows: (concentration: 0.1mM) 1.01 ± 0.052; (concentration: 0.5mM) 1.06 ± 0.066; (concentration: 1mM) 1.07 ± 0.061; (concentration: 2mM) 1.12 ± 0.099; (concentration: 4mM) 1.14 ± 0.062; (concentration: 6mM) 1.21 ± 0.096. Moreover, the NP40-soluble protein abundance reads like this: (concentration: 8mM) 1.26 ± 0.14; (concentration: 10mM) 1.32 ± 0.15.

In the case of UniProt Q659A1, the NP40-soluble protein abundance runs as follows: (concentration: 0.1mM) 1.08 ± 0.11; (concentration: 0.5mM) 1.13 ± 0.13; (concentration: 1mM) 1.18 ± 0.16; (concentration: 2mM) 1.25 ± 0.12; (concentration: 4mM) 1.25 ± 0.13; (concentration: 6mM) 1.2 ± 0.13. The NP40-soluble protein abundance came to 1.36 ± 0.27 (concentration: 8mM) and 1.29 ± 0.2 (concentration: 10mM).

Regarding MYSM1 (UniProt Q5VVJ2), the NP40-soluble protein abundance was determined as 1.02 ± 0.032 (concentration: 0.1mM); 0.972 ± 0.074 (concentration: 0.5mM); 0.991 ± 0.031 (concentration: 1mM); 0.938 ± 0.083 (concentration: 2mM); 0.943 ± 0.064 (concentration: 4mM); 0.905 ± 0.1 (concentration: 6mM). The NP40-soluble protein abundance is, setting by setting: (concentration: 8mM) 0.959 ± 0.037; (concentration: 10mM) 0.935 ± 0.073.

As for LMBRD2 (UniProt Q68DH5), the NP40-soluble protein abundance (concentration: 0.1mM) amounted to 0.993 ± 0.086; the NP40-soluble protein abundance (concentration: 0.5mM) amounted to 1.07 ± 0.14; the NP40-soluble protein abundance (concentration: 1mM) turned out to be 1.07 ± 0.08; the NP40-soluble protein abundance (concentration: 2mM) was determined as 1.05 ± 0.14; the NP40-soluble protein abundance (concentration: 4mM) was determined as 0.966 ± 0.12; the NP40-soluble protein abundance (concentration: 6mM) was found to be 1.01 ± 0.1. Besides, the NP40-soluble protein abundance was 1.09 ± 0.074 (concentration: 8mM) and 1.04 ± 0.053 (concentration: 10mM).
